In publication PMC12080395:
Results are given in words; binding and its absence hold for the method and conditions named. Binding seen in cells or lysates may run through a third protein. Some binding calls cover weakened binding; strength is not graded here.

Biological target: STAT3 (endogenous, mouse heart tissue) (mouse (endogenous in heart tissue)) (UniProt P42227)
Assay: co-IP; whole extracts of heart tissue of STZ/HFD-induced or db/db diabetic mice treated with or without paquinimod; STAT3 or STIP1 antibody at 4°C overnight, protein A/G magnetic beads

## STIP1 (endogenous, mouse heart tissue) (from UniProt Q60864 1-543)
  binding: binds
